Data as given in the supplement of paper PMC10849652.
This is one part of the list.

Protein sequences, listed by entry. Tags and fused reporters are not part of them. Lines headed by an entry give the natural chain unless they say otherwise; changes in a name come on top.
UniProt Q9H1C4: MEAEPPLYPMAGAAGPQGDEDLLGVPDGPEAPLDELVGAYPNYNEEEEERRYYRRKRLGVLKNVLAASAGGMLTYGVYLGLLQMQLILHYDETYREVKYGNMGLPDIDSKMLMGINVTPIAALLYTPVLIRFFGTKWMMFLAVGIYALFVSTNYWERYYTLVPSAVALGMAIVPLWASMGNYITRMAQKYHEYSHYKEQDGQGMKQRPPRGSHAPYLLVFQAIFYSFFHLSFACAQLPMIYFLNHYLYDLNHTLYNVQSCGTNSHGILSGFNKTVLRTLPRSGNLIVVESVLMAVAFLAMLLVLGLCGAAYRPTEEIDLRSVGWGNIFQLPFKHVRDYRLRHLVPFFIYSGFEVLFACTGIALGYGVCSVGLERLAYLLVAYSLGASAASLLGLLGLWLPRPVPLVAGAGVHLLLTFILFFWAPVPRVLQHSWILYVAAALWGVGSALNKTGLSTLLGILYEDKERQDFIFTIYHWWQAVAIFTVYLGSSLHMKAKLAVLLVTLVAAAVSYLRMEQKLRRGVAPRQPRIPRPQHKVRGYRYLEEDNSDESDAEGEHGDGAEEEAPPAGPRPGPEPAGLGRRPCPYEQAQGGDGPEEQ
UniProt Q16880: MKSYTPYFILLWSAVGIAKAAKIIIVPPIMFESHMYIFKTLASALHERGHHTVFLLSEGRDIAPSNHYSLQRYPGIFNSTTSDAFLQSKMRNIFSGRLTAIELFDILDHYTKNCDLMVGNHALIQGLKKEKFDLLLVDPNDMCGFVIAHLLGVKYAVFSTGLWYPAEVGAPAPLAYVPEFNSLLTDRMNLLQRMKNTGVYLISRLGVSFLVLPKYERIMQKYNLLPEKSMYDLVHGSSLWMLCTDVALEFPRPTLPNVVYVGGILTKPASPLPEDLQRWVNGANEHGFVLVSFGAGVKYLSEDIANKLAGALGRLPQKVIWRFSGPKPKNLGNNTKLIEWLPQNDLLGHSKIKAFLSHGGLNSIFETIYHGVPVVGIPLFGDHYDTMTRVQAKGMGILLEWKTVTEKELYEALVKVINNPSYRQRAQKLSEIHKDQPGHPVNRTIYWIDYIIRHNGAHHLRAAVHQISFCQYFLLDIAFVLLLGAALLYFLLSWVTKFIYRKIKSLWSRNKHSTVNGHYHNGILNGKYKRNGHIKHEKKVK
UniProt O14957: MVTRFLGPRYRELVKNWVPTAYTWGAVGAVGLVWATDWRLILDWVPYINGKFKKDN
UniProt Q93008, whole entry, looked up: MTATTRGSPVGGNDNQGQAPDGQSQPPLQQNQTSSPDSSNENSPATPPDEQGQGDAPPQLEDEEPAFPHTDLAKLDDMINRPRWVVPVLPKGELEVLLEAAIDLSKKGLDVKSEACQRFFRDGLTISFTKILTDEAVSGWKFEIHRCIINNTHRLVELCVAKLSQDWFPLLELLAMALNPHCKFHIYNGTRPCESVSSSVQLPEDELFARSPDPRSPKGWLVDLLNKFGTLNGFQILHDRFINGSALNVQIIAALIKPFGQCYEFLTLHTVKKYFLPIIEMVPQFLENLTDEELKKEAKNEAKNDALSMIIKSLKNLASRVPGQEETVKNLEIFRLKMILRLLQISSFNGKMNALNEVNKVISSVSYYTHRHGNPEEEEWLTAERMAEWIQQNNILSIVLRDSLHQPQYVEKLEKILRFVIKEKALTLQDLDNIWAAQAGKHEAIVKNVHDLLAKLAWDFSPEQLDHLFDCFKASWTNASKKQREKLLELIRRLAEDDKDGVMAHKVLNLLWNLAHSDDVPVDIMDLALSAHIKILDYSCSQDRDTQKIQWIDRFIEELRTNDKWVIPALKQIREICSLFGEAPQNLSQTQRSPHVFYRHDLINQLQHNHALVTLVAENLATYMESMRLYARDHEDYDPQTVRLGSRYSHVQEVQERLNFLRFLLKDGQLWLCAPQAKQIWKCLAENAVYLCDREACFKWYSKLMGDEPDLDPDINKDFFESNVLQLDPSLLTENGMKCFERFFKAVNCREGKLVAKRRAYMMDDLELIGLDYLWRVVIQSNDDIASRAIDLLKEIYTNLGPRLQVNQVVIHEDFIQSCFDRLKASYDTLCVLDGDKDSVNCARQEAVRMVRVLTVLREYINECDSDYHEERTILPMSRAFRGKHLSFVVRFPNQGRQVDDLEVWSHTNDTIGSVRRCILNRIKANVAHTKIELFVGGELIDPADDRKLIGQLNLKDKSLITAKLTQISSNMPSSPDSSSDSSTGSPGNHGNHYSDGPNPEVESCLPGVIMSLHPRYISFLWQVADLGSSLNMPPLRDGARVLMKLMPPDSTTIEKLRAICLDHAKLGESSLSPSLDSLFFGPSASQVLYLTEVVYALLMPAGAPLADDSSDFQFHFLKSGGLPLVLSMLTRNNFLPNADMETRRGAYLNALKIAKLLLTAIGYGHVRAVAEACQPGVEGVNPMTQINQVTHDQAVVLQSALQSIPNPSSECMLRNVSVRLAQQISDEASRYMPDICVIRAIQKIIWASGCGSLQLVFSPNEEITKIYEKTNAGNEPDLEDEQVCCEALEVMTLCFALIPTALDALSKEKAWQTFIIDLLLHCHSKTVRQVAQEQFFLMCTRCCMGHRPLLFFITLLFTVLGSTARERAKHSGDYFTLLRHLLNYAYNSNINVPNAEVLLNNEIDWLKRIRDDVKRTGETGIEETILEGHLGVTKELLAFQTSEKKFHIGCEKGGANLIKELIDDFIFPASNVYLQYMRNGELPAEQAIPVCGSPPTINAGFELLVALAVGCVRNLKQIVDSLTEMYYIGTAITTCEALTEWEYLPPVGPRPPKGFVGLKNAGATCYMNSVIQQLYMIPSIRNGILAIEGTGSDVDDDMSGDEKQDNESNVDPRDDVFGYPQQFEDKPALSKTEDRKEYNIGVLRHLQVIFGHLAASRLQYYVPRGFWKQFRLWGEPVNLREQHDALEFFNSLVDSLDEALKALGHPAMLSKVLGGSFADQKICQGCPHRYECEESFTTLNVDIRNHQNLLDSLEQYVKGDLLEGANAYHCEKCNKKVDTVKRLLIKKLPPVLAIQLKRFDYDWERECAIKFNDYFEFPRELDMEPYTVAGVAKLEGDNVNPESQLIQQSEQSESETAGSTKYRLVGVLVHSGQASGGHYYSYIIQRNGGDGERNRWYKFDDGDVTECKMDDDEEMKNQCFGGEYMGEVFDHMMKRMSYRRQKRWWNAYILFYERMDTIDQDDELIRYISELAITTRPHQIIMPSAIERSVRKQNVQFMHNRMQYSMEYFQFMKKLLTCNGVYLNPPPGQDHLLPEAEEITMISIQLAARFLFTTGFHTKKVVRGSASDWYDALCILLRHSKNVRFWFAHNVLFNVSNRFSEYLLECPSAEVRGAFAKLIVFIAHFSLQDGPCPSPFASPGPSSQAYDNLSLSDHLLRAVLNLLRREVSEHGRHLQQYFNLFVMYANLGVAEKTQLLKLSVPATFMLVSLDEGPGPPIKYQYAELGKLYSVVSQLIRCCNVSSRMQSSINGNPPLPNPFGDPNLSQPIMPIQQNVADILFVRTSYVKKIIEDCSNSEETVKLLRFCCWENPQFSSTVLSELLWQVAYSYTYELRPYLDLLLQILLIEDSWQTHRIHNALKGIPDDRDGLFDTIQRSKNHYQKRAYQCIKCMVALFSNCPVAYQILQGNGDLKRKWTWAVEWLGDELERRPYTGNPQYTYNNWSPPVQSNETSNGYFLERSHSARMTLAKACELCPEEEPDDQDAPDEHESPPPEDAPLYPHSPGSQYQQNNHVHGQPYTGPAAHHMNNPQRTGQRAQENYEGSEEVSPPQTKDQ
UniProt Q8TED0: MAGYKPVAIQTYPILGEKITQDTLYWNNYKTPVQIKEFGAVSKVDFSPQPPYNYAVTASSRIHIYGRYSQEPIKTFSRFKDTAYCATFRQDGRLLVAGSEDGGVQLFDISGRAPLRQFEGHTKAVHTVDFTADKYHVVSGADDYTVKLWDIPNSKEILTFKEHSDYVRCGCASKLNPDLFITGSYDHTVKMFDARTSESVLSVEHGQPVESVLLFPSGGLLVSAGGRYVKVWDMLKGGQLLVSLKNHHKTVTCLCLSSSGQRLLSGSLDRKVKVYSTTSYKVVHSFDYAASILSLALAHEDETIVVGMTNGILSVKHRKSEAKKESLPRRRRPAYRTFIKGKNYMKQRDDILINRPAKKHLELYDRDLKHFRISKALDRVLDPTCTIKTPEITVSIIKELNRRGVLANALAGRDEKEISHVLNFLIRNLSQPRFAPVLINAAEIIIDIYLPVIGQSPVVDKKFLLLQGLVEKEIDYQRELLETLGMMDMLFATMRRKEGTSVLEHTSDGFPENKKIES
UniProt Q92900: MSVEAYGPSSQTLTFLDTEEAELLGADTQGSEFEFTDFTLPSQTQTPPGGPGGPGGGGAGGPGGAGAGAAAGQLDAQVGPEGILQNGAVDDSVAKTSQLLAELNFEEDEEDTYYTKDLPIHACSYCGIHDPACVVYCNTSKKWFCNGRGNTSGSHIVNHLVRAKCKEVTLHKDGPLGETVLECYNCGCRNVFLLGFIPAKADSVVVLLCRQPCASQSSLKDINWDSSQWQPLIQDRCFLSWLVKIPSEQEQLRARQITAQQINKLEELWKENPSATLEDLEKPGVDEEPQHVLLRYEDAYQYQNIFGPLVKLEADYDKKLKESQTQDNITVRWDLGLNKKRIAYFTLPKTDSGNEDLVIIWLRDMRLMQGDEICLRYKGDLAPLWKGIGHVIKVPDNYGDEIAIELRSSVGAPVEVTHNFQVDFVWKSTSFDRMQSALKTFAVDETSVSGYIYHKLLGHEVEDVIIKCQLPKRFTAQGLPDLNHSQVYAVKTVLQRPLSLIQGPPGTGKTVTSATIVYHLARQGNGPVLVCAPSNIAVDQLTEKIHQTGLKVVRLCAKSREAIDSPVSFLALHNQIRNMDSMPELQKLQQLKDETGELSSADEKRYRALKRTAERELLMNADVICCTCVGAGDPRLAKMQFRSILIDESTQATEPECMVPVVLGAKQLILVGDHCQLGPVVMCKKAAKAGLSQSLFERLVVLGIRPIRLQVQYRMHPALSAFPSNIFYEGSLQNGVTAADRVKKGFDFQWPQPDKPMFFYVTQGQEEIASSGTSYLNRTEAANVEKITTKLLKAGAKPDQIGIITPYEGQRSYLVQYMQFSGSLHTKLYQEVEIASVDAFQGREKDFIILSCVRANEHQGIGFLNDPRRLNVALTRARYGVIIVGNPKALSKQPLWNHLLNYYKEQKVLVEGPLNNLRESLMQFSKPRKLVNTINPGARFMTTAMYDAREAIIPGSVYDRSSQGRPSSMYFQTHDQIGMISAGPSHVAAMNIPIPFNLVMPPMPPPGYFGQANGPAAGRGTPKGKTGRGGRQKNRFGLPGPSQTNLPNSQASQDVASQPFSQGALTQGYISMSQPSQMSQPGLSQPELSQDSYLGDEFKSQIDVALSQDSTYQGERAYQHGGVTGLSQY
UniProt P47985: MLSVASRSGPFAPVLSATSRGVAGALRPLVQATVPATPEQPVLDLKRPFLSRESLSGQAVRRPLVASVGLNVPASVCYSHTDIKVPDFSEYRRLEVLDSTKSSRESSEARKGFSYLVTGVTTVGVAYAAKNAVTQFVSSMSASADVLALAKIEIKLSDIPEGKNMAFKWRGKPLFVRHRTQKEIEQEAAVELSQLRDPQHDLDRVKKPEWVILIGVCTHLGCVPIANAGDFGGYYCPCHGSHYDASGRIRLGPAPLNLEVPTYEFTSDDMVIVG
UniProt Q08AM6: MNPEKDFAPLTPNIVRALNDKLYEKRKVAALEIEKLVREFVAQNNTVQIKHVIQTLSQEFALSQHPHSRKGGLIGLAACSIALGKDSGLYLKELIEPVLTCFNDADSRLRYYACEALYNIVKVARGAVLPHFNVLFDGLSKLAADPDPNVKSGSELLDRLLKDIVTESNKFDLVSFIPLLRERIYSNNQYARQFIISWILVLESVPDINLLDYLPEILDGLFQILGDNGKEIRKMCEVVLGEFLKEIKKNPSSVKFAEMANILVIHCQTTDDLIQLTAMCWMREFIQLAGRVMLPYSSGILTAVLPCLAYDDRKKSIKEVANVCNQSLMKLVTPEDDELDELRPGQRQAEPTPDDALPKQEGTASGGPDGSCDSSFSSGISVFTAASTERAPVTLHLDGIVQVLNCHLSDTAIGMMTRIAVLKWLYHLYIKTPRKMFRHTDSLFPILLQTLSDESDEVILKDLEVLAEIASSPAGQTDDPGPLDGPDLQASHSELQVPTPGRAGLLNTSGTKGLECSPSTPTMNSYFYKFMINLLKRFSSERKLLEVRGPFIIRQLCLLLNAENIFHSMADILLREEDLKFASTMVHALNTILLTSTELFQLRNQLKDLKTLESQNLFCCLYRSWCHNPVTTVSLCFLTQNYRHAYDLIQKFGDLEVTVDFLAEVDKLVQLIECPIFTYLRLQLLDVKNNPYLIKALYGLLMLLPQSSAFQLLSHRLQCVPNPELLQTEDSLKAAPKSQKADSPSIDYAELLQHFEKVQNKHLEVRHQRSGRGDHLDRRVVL

How the values were obtained:
Assay in all cases: log2 fold change, soluble protein after heating vs DMSO (PISA); higher = thermal stabilisation; K562 lysate, 10 uM; active = over 0.2 and 3.5 SD of the protein, either way, in both replicates (recomputed)
[1] = compound: C#Cc1cccc(Nc2ncnc3cc(OCCOC)c(OCCOC)cc23)c1 [erlotinib]
In short: (§1)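 Pellets of K562 cells were dounce-homogenised in PBS pH 7.4 with 1 mM MgCl2, and the crude extract was held at 1 mg/mL protein for a 30 min treatment with 10 μM compound. Aliquots were heated for 3 min over 48°C-58°C and pooled before NP-40 was added to 0.5% at 4°C. The supernatant from 21,000xg for 90 min was quantified by TMTpro 16plex LC-MS/MS with channel sums equalised. Values are reported from duplicates as log-two fold change in thermal stability relative to solvent controls.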

[2] = compound: C/C(=N\NC(=O)C1=CC(=CC=C1)S(=O)(=O)N2CCOCC2)/C3=C(C=CC(=C3)Cl)O
In short: as §1

[3] = compound: C1=CC(=CC=C1C2=NC3=C(N2)C=C(C=C3)C(=O)N)OC4=CC=C(C=C4)Cl
In short: as §1

[4] = compound: C1=CC2=C(C=CC(=C2)/C=C\3/C(=O)NC(=NCC4=CC=CS4)S3)N=C1
In short: as §1

[5] = compound: C1=CC2=NC=CN=C2C=C1/C=C/3\C(=O)NC(=O)S3
In short: as §1

[6] = compound: C1=CC=C(C=C1)C2=NC(=C(N2)C3=CC=NC=C3)C4=CC(=C(C=C4)Cl)O
In short: as §1

[7] = compound: C1=CC=C2C(=C1)C3=NNC4=CC=CC(=C43)C2=O
In short: as §1

[8] = compound: C1CCN(C1)C(=O)NC2=CC=CC(=C2)NC3=NC=C(C(=N3)NCCC4=CN=CN4)Br
In short: as §1

[9] = compound: C1CN(CCC1(CC2=CC=C(C=C2)Cl)N)C3=NC=NC4=C3C=CN4
In short: as §1

[10] = compound: C1COCCN1CCN2C3=CC=CC=C3N=C2NC(=O)C4=CC(=CC=C4)[N+](=O)[O-] [IRAK-1-4 Inhibitor I]
In short: as §1

[11] = compound: C=CC(=O)N1CCC[C@@H](n2nc(-c3ccc(Oc4ccccc4)cc3)c3c(N)ncnc32)C1 [ibrutinib]
In short: as §1

[12] = compound: CC(=O)c1cnc2ccc(-c3cc(Cl)c(O)c(Cl)c3)nc2c1N[C@H]1CC[C@H](CN(C)C)CC1
In short: as §1

[13] = compound: CC(C)(C)Cn1c(N)nc2ccc(-c3[nH]c(C(C)(C)C)nc3-c3ccc(F)cc3)nc21 [ralimetinib]
In short: as §1

[14] = compound: CC(C)(O)CC(=O)NCCn1ccc2ncnc(Nc3ccc(Oc4cccc(C(F)(F)F)c4)c(Cl)c3)c21
In short: as §1

[15] = compound: CC(C)C1=C2N=C(C=C(N2N=C1)NCC3=CC=CC=C3)NCCCCCCN
In short: as §1

[16] = compound: CC1=C(C(CC(=O)N1)C2=CC=C(C=C2)C(F)(F)F)C(=O)NC3=C(C=C4C(=C3)C=NN4)F
In short: as §1

[17] = compound: CC1=C(C2=C(C=C1)C(=O)C3=CC=CC=C3N2CCCN)C
In short: as §1

[18] = compound: CC1=C(C=C(C=C1)NC(=O)C2=CC(=CC=C2)C(C)(C)C#N)NC3=CC4=C(C=C3)N=CN(C4=O)C
In short: as §1

[19] = compound: CC1=C(C=C(C=C1)NC(=O)C2=CC(=CC=C2)N(C)C)NC(=O)C3=CC=C(C=C3)O
In short: as §1

[20] = compound: CC1=CC=C(C=C1)SC2=C3C=C(SC3=CN=C2)C(=O)N
In short: as §1

Measured: log2 fold change

VAV1 (UniProt P15498)
inactive: [1] 0.02 | [2] 0.081 | [3] -0.022 | [4] 0.001 | [5] -0.043 | [6] 0.037 | [7] -0.082 | [8] -0.004 | [9] -0.002 | [10] -0.009 | [11] -0.057 | [12] 0.054 | [13] 0.083 | [14] -0.042 | [15] 0.009 | [16] -0.004 | [17] -0.034 | [18] -0.078 | [19] 0.046 | [20] 0.082

UNC93B1 (UniProt Q9H1C4)
inactive: [1] -0.086 | [2] -0.057 | [3] 0.055 | [4] -0.036 | [5] 0.18 | [6] 0.031 | [7] 0.012 | [8] -0.057 | [9] -0.103 | [10] 0.052 | [11] -0.197 | [12] 0.077 | [13] 0.005 | [14] -0.063 | [15] -0.016 | [16] -0.039 | [17] 0.051 | [18] 0.175 | [19] 0.063 | [20] -0.202

UGT8 (UniProt Q16880)
inactive: [1] 0.039 | [2] -0.012 | [3] 0.029 | [4] 0.008 | [5] -0.179 | [6] 0.237 | [7] -0.084 | [8] -0.035 | [9] 0.053 | [10] 0.232 | [11] -0.014 | [12] -0.044 | [13] 0.037 | [14] -0.067 | [15] -0.088 | [16] 0.072 | [17] -0.155 | [18] 0.098 | [19] -0.043 | [20] -0.06

USP8 (UniProt P40818)
inactive: [1] -0.011 | [2] -0.034 | [3] 0.026 | [4] -0.004 | [5] -0.034 | [6] 0.014 | [7] -0.028 | [8] -0.014 | [9] 0.006 | [10] -0.019 | [11] 0.048 | [12] -0.009 | [13] 0 | [14] -0.014 | [15] 0.015 | [16] 0.004 | [17] -0.007 | [18] -0.001 | [19] 0.018 | [20] 0.009

UTP4 (UniProt Q969X6)
inactive: [1] -0.032 | [2] -0.109 | [3] -0.006 | [4] -0.042 | [5] -0.007 | [6] -0.003 | [7] -0.065 | [8] -0.003 | [9] 0 | [10] -0.053 | [11] 0.018 | [12] -0.016 | [13] -0.006 | [14] 0.001 | [15] -0.03 | [16] -0.02 | [17] 0.029 | [18] -0.002 | [19] 0.013 | [20] 0.003

UQCR11 (UniProt O14957)
inactive: [1] 0.056 | [2] -0.045 | [3] -0.055 | [4] 0.009 | [5] 0.271 | [6] 0.004 | [7] -0.039 | [8] -0.014 | [9] 0.038 | [10] -0.016 | [11] 0.191 | [12] -0.006 | [13] 0.11 | [14] -0.005 | [15] 0.001 | [16] -0.085 | [17] -0.142 | [18] 0.034 | [19] -0.019 | [20] 0.045

UHRF1BP1 (UniProt Q6BDS2)
inactive: [1] -0.021 | [2] -0.025 | [3] 0.08 | [4] -0.019 | [5] -0.015 | [6] -0.01 | [7] 0.006 | [8] 0 | [9] -0.038 | [10] -0.001 | [11] 0 | [12] -0.05 | [13] 0.052 | [14] 0.038 | [15] 0.022 | [16] 0.053 | [17] -0.02 | [18] -0.034 | [19] 0.008 | [20] -0.011

UQCC1 (UniProt Q9NVA1)
inactive: [1] 0.02 | [2] 0.033 | [3] -0.015 | [4] 0.008 | [5] -0.012 | [6] 0.001 | [7] -0.044 | [8] -0.017 | [9] 0.015 | [10] 0.016 | [11] -0.001 | [12] 0.02 | [13] 0.018 | [14] -0.023 | [15] -0.001 | [16] 0.014 | [17] 0.014 | [18] -0.018 | [19] -0.014 | [20] -0.002

USP9X (UniProt Q93008)
inactive: [1] 0.034 | [2] 0.013 | [3] -0.008 | [4] 0.015 | [5] 0.014 | [6] 0.003 | [7] -0.019 | [8] -0.005 | [9] -0.013 | [10] 0.022 | [11] -0.003 | [12] 0.001 | [13] 0.025 | [14] -0.024 | [15] -0.032 | [16] -0.008 | [17] 0.009 | [18] -0.021 | [19] 0.043 | [20] 0.011

UTP15 (UniProt Q8TED0)
inactive: [1] -0.012 | [2] -0.001 | [3] -0.042 | [4] 0.018 | [5] 0 | [6] -0.036 | [7] -0.052 | [8] -0.006 | [9] 0.035 | [10] 0.04 | [11] 0.048 | [12] 0.029 | [13] 0.036 | [14] -0.037 | [15] 0.004 | [16] 0.031 | [17] -0.045 | [18] -0.007 | [19] 0.002 | [20] -0.002

UPF1 (UniProt Q92900)
inactive: [1] 0.012 | [2] -0.044 | [3] 0.026 | [4] 0.007 | [5] -0.02 | [6] 0.001 | [7] 0.006 | [8] -0.015 | [9] 0.003 | [10] 0.007 | [11] 0.005 | [12] -0.005 | [13] -0.005 | [14] -0.008 | [15] 0.013 | [16] -0.001 | [17] -0.025 | [18] 0.026 | [19] -0.009 | [20] 0

UQCRC1 (UniProt P31930)
inactive: [1] 0.005 | [2] -0.006 | [3] -0.002 | [4] -0.008 | [5] -0.005 | [6] -0.004 | [7] -0.023 | [8] 0.004 | [9] 0.014 | [10] -0.004 | [11] 0 | [12] 0.001 | [13] -0.009 | [14] -0.014 | [15] -0.006 | [16] -0.021 | [17] -0.005 | [18] 0.036 | [19] -0.022 | [20] -0.021

USP28 isoform 2 (UniProt Q96RU2)
inactive: [1] -0.036 | [2] -0.056 | [3] -0.003 | [4] 0.019 | [5] 0.007 | [6] 0.021 | [7] -0.014 | [8] 0.037 | [9] 0.044 | [10] -0.017 | [11] 0.026 | [12] -0.02 | [13] 0.043 | [14] 0.041 | [15] -0.004 | [16] -0.036 | [17] 0.012 | [18] 0.004 | [19] 0.02 | [20] 0.027

UQCRFS1 (UniProt P47985)
inactive: [1] 0.001 | [2] -0.019 | [3] -0.004 | [4] -0.035 | [5] -0.018 | [6] -0.004 | [7] 0.031 | [8] 0.078 | [9] 0.015 | [10] -0.004 | [11] -0.003 | [12] -0.001 | [13] -0.061 | [14] -0.033 | [15] -0.017 | [16] -0.026 | [17] 0.017 | [18] -0.015 | [19] -0.023 | [20] -0.002

VAC14 (UniProt Q08AM6)
inactive: [1] -0.007 | [2] 0.02 | [3] -0.004 | [4] 0.032 | [5] 0.024 | [6] -0.006 | [7] -0.023 | [8] 0.006 | [9] 0.015 | [10] 0.024 | [11] -0.029 | [12] -0.025 | [13] -0.003 | [14] -0.055 | [15] 0.002 | [16] -0.008 | [17] 0.005 | [18] 0.003 | [19] 0.039 | [20] -0.034

Looked up one by one from the entries so far (two):
VAC14 (UniProt Q08AM6)
inactive: [1] -0.007 | [2] 0.02 | [3] -0.004 | [4] 0.032 | [5] 0.024 | [6] -0.006 | [7] -0.023 | [8] 0.006 | [9] 0.015 | [10] 0.024 | [11] -0.029 | [12] -0.025 | [13] -0.003 | [14] -0.055 | [15] 0.002 | [16] -0.008 | [17] 0.005 | [18] 0.003 | [19] 0.039 | [20] -0.034

UPF1 (UniProt Q92900)
inactive: [1] 0.012 | [2] -0.044 | [3] 0.026 | [4] 0.007 | [5] -0.02 | [6] 0.001 | [7] 0.006 | [8] -0.015 | [9] 0.003 | [10] 0.007 | [11] 0.005 | [12] -0.005 | [13] -0.005 | [14] -0.008 | [15] 0.013 | [16] -0.001 | [17] -0.025 | [18] 0.026 | [19] -0.009 | [20] 0

The listing continues.

UNC5B (UniProt Q8IZJ1)
inactive: [1] 0.004 | [2] -0.062 | [3] 0.012 | [4] -0.015 | [5] 0.013 | [6] -0.025 | [7] -0.2 | [8] 0.053 | [9] -0.035 | [10] 0.015 | [11] 0.037 | [12] -0.232 | [13] -0.012 | [14] -0.016 | [15] 0.044 | [16] 0.203 | [17] 0.004 | [18] 0.017 | [19] -0.003 | [20] 0.127
